Results reported in patent US9968587B2, “Heterocycle analogs of CAI-1 as agonists of quorum sensing in vibrio” (THE TRUSTEES OF PRINCETON UNIVERSITY, priority 2013, dated 2018).
Some of these results come from one statement about several compounds together.

Chains of the proteins cited; added tags and fusions are not shown. Lines headed by an entry give the natural chain unless they say otherwise; changes in a name come on top.
UniProt Q9KM66: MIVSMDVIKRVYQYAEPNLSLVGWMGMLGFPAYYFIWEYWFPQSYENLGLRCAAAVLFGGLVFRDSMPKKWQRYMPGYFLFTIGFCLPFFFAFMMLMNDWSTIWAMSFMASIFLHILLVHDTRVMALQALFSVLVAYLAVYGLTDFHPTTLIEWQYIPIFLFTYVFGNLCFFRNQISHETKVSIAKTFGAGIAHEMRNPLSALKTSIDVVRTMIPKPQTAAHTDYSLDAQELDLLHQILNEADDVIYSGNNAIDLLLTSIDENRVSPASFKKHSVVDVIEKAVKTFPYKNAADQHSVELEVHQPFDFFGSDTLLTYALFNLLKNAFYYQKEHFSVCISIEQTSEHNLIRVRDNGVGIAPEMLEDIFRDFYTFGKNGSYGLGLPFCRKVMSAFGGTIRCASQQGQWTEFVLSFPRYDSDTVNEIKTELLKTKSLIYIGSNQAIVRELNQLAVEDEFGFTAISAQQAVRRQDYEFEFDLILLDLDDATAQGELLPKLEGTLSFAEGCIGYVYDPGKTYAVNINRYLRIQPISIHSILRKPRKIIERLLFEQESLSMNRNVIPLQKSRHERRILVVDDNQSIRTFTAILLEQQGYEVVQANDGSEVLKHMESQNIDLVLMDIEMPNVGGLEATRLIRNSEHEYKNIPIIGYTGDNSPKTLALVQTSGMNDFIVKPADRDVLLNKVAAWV

Target: V. cholerae CqsS receptor (Vibrio cholerae serotype O1, UniProt Q9KM66)
Experiment: CqsS agonist bioassay (V. cholerae reporter strain MM920, bioluminescence)

SMILES | activity fold lower than the best agonists (Ea-CAI-1 and acylpyrrole 18)
O=C(CCCCCCc1ccccc1)c1cc[nH]c1 [Compound 28, 7-phenyl-1-(1H-pyrrol-3-yl)heptan-1-one] | 3- to 10 fold
CCCCc1ccc(CCC(=O)c2cc[nH]c2)cc1 [Compound 26, 3-(4-butylphenyl)-1-(1H-pyrrol-3-yl)propan-1-one] | 3- to 10 fold
